Measurements from US20260258110A1, “VOLTAGE GATED SODIUM CHANNEL-SPECIFIC PEPTIDE APTAMERS AND USES THEREOF” (The Medical College of Wisconsin, Inc., priority 2023, published 2026).

Test system: HEK1.7 cells
Assay: Subcellular localization of GFP-fused peptides in HEK1.7 cells (ICC, immunoblot of fractions)
Type: cell-based, human
Details: HEK1.7 cell transfection, 48 hours

Substance | nuclear localization (ICC)
NaviPA1mt1: GFP-fused NaviPA1 mutant, alanine substitution for ten serine residues (AAKAAKERRNRRKKKKQKMAAGEEKGDDEKLAKAGAEEAIRKKA; GFP fusion) | observed
NaviPA1mt2: GFP-fused NaviPA1 mutant, alanine substitution for nine arginine or lysine within predicted polybasic NLS (SSKSAKEAANAAAAAAQAMSSGEEKGDDEKLSKSGSEESIRKKS; GFP fusion) | diminished
